This note sets out measurements from PMC4024641.

For experiment [1], the target named is Iss10-13×myc (S. pombe). The experiment can be described thus: co-IP; α-myc (9E10) on Protein G Dynabeads from S. pombe cell lysate, 4°C 2–3 h, lysis buffer; blot with α-FLAG-HRP; without RNase A.
For experiment [2], the target named is Iss10-13×myc (S. pombe). As to the kind of experiment: co-IP; α-myc (9E10) on Protein G Dynabeads from S. pombe cell lysate, 4°C 2–3 h; RNase A 100 μg/mL present during binding and washing; blot with α-FLAG-HRP.

No constants are given. Whether binding was seen depends on the method and setting. Binding seen in cells or lysates may run through a third protein. A result given as binding can be weak or reduced; the word gives no strength. Where a sequence is shown, tags or fusion partners need not be part of it.

B1: Red1-3×FLAG (protein, UniProt Q9UTR8 1-712)
chain: MSRSINLDELRKKALESKKKNEEDESNDSDKEDGEISEDDPVIDQSNSVPPMKVPTFPEQIPQLPPFDRFPGTNANFFPFGAPFMLPPALMFGPNTVPFFPQTASSNKTFSKRKRSSENSFNNRNKAKSSETSDSSNTSQSFKENRALKDTATSRPLALSSDTSYQKSEKAKSEKSPFLSTSKNSDANYSKTTNQKEAEKAVSQLFEVGVRFNDFIAEGIEPSVVHTLFLKLGLDSSSASSQGSLTLSADKAARSAKLRKIDSNLSDTHILPGDNGTPTVLPERKNLISLPLLKQDDWLSSSKPFGSSTPNVVIEFDSDDDGDDFSNSKIEQSNLEKPPSNSENGLTMSRSDYLALLRNKEEEIRRMTKLILRLESNKKPYRSPTSAADMKLPSVPVAAVDNKSKTHLDTFEKVVDLSSKADFVEAGPSISSSGASSSAATTNSDTTEQILEAPWLRKTEQIAVVHEEHPAQIKKSEIDILNNLIEKEEGELTKYQTLVKSKTEILTQLYTRKKQLLEQQGKGNVACLPKESDLSMDSITEVSAQADENSSQILSSKTSNAPNGTTETDFEDKVPLVDYISPFYRFKSYRFNQQFVERVPLKYRSLTYSNKIEPMKVFCKYETTGGVCNDDHCEASHFRDIKMTDDEIIQDLSRYIEGNDEIEKESYKSGLDIVMKNTDENTDFVDVATRIVEYHNLWKSERMTIPVAKVSI
Take B1: the binding result in the experiment with Iss10-13×myc (S. pombe) [1] and with Iss10-13×myc (S. pombe) [2] was “binds” throughout.
